According to publication PMC4053938:
These are yes or no findings as the source states them, for the method shown. Binding seen in cells or lysates may run through a third protein. Some results given as binding are weak or reduced against the parent protein; the word gives no strength.

Amino acid sequences for entries named in this document (tags omitted).
UniProt Q3URK3: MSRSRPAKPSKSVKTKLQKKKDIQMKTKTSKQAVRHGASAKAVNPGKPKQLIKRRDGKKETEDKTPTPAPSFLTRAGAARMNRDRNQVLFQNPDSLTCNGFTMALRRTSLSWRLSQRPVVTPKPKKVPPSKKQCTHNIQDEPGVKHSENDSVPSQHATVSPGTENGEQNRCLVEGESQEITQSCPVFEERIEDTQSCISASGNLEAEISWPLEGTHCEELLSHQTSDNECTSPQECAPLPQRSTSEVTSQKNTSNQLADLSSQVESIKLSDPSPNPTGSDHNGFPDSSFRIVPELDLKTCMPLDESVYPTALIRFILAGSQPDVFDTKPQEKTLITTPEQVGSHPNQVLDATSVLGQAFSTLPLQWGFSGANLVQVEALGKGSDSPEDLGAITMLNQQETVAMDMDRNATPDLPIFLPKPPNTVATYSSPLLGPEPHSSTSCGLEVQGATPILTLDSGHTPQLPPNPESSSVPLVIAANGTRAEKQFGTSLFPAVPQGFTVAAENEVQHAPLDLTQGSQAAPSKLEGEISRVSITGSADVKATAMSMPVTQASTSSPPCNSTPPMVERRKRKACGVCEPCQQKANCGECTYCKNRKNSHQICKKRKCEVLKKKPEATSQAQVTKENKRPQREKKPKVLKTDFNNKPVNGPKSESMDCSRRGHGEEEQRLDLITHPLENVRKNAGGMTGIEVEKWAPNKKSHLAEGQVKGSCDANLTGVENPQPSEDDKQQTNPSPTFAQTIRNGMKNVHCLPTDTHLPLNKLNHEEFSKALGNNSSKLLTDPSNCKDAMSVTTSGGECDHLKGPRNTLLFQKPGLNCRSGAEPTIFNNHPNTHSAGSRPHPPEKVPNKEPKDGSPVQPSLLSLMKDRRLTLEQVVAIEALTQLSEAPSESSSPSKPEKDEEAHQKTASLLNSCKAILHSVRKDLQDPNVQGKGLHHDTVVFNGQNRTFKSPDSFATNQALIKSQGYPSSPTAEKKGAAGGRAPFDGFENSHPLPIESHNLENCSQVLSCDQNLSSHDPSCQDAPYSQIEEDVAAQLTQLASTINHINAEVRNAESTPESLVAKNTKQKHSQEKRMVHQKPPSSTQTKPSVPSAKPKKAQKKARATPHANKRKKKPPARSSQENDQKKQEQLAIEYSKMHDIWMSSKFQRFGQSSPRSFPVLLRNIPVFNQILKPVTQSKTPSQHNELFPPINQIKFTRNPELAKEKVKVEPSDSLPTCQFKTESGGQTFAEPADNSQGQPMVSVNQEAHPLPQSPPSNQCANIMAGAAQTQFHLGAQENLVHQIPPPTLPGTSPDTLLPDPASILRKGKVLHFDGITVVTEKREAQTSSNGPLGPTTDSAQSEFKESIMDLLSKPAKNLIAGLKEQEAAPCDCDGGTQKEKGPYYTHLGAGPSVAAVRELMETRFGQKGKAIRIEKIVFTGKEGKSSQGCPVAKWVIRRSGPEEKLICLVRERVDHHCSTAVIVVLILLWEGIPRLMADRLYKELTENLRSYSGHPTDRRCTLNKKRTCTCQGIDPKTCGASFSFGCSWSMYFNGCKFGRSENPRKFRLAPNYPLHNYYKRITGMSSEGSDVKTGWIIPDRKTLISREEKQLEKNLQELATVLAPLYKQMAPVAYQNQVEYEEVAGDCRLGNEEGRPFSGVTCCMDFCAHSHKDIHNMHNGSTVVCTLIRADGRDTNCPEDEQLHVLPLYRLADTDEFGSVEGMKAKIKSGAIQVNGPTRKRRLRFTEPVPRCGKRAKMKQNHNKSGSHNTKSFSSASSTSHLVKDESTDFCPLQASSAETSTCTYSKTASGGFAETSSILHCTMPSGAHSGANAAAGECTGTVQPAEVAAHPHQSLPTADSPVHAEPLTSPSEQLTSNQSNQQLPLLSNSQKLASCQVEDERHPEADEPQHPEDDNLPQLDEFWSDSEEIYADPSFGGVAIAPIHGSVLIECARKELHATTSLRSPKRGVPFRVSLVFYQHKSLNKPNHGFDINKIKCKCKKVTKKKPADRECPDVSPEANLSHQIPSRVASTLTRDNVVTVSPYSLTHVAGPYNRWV

What was measured:
[1] = target: Tet1 (mouse (endogenous in E14 ES cells)) (UniProt Q3URK3); assay: co-IP; endogenous proteins from ESC nuclear extracts (micrococcal nuclease digested); 3 ug anti-Tet1, anti-Suz12 or control IgG overnight at 4°C, Protein G magnetic beads; washed with digestion buffer with 0.1% NP-40; eluted with 0.4 M NaCl TE; western blot
[2] = target: Tet1 (mouse (endogenous in MEFs)) (UniProt Q3URK3); assay: co-IP; endogenous proteins from MEF nuclear extracts (micrococcal nuclease digested); 3 ug anti-Tet1, anti-Suz12 or control IgG overnight at 4°C, Protein G magnetic beads; washed with digestion buffer with 0.1% NP-40; eluted with 0.4 M NaCl TE; western blot

binding [1]: binds
binding [2]: binds
B1: Sin3a (protein, UniProt Q60520 1-1274)
chain: MKRRLDDQESPVYAAQQRRIPGSTEAFSHQHRVLAPAPPVYEAVSETMQSATGIQYSVAPNYQVSAVPQSSGSHGPAIAAVHSSHHHPTAVQPHGGQVVQSHAHPAPPVAPVQGQQQFQRLKVEDALSYLDQVKLQFGSQPQVYNDFLDIMKEFKSQSIDTPGVISRVSQLFKGHPDLIMGFNTFLPPGYKIEVQTNDMVNVTTPGQVHQIPTHGIQPQPQPPPQHPSQPSSQSAPTPAQPAPQPTAAKVSKPSQLQAHTPASQQTPPLPPYASPRSPPVQPHTPVTISLGTAPSLQNNQPVEFNHAINYVNKIKNRFQGQPDIYKAFLEILHTYQKEQRNAKEAGGNYTPALTEQEVYAQVARLFKNQEDLLSEFGQFLPDANSSVLLSKTTAEKVDSVRNDHGGTVKKPQLNNKPQRPSQNGCQIRRHSGTGATPPVKKKPKLMSLKESSMADASKHGVGTESLFFDKVRKALRSAEAYENFLRCLVIFNQEVISRAELVQLVSPFLGKFPELFNWFKNFLGYKESVHLESFPKERATEGIAMEIDYASCKRLGSSYRALPKSYQQPKCTGRTPLCKEVLNDTWVSFPSWSEDSTFVSSKKTQYEEHIYRCEDERFELDVVLETNLATIRVLEAIQKKLSRLSAEEQAKFRLDNTLGGTSEVIHRKALQRIYADKAADIIDGLRKNPSIAVPIVLKRLKMKEEEWREAQRGFNKVWREQNEKYYLKSLDHQGINFKQNDTKVLRSKSLLNEIESIYDERQEQATEENAGVPVGPHLSLAYEDKQILEDAAALIIHHVKRQTGIQKEDKYKIKQIMHHFIPDLLFAQRGDLSDVEEEEEEEMDVDEATGAPKKHNGVGGSPPKSKLLFSNTAAQKLRGMDEVYNLFYVNNNWYIFMRLHQILCLRLLRICSQAERQIEEENREREWEREVLGIKRDKSDSPAIQLRLKEPMDVDVEDYYPAFLDMVRSLLDGNIDSSQYEDSLREMFTIHAYIAFTMDKLIQSIVRQLQHIVSDEVCVQVTDLYLAENNNGATGGQLNSQTSRSLLESAYQRKAEQLMSDENCFKLMFIQSQGQVQLTVELLDTEEENSDDPVEAERWSDYVERYMSSDTTSPELREHLAQKPVFLPRNLRRIRKCQRGREQQEKEGKEGNSKKTMENVESLDKLECRFKLNSYKMVYVIKSEDYMYRRTALLRAHQSHERVSKRLHQRFQAWVDKWTKEHVPREMAAETSKWLMGEGLEGLVPCTTTCDTETLHFVSINKYRVKYGTVFKAP
